The test deals with hemagglutinin (HA) of A/WSN/33(H1N1) virus, Flag-tagged (influenza A virus A/WSN/33(H1N1)) (UniProt P03454). The test is described as follows: co-IP.

By UniProt entry, the sequences of proteins in these tests, tags left out. Residues count along the entry.
UniProt P03454, residues 18-565: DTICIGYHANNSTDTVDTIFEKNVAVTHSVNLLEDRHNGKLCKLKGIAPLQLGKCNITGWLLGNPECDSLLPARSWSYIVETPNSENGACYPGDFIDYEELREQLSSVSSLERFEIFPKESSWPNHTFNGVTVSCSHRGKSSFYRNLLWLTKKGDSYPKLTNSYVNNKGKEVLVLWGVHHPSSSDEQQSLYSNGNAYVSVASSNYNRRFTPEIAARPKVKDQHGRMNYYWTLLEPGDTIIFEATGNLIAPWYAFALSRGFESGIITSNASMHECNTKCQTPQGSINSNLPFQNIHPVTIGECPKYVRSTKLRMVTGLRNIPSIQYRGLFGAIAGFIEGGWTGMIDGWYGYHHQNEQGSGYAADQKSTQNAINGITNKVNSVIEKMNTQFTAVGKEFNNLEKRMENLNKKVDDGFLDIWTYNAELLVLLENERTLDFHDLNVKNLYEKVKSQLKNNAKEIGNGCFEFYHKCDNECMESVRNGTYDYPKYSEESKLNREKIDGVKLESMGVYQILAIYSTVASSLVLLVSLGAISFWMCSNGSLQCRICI
UniProt Q8TDY8, residues 25-1250: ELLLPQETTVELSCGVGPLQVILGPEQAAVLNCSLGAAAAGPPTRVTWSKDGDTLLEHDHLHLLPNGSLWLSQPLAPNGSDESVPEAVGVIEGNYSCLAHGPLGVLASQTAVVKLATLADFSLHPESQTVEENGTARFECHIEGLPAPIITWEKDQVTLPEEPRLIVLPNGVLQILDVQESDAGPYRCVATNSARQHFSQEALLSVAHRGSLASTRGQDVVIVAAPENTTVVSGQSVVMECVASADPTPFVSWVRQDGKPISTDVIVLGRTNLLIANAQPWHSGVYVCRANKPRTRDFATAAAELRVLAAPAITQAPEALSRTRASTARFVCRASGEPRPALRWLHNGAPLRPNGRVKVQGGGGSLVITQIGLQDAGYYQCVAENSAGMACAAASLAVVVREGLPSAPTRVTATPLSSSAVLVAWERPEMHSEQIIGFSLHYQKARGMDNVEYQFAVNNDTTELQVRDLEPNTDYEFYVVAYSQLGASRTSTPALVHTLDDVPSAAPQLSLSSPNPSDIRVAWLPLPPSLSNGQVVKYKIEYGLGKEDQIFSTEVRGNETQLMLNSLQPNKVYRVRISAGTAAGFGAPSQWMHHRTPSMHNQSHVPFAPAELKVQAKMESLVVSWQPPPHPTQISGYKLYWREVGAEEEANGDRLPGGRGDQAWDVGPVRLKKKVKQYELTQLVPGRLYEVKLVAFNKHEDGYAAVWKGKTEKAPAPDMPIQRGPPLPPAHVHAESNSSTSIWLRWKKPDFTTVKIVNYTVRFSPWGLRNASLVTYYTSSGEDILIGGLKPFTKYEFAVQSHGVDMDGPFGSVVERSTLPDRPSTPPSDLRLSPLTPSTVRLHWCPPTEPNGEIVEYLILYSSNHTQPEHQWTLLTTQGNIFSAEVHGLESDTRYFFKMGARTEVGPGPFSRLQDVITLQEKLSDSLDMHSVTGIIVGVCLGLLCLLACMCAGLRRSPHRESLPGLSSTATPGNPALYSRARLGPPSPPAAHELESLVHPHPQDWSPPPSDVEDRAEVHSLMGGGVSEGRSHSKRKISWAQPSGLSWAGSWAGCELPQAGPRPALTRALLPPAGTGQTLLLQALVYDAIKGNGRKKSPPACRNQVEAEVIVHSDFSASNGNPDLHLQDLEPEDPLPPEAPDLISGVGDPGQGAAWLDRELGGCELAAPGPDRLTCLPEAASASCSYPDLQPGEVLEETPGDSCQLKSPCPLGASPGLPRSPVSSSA

Results are given in words; binding and its absence hold for the method and conditions named. Binding seen in cells or lysates may run through a third protein. Some binding calls cover weakened binding; strength is not graded here.

The source of these data is PMC8675923.

“immunoglobulin superfamily DCC subclass member 4 (IGDCC4) isoform 1, Myc-tagged (from UniProt Q8TDY8 25-1250)”: the binding result was “binds”.
